Results deposited as PubChem BioAssay AID743454 (Peter MacCallum Cancer Centre, 2014)
Here is a random part of about 18,000 reagents. Of all reagents, 450 (2.5%) are marked active. 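Single biological run; no consistent viability z cut-off exists, so the class columns, not z-scores, define the calls.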 Reagent sequences are not shown.

Screen: 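Search for knock-downs that restore vorinostat killing in resistant colon cancer cells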 (primary screen)
Cell system: human HCT116-VR colon cancer cells, selected for vorinostat resistance
Reagent: siRNA pool against human genes, 40 nM siRNA pool
Duration: vorinostat for 24 h, read-out about 72 h after transfection
Challenge: vorinostat at 2.5 µM final
Detection: 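Cell viability by CellTiter-Fluor and caspase 3/7 activity by luminescence, each scaled to mock wells per plate, duplicates averaged, then robust z-scored over all plates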
Reading the numbers: viability robust z-score: higher = more viable cells than screen typical; caspase robust z-score: higher = more caspase 3/7 activity than screen typical
Rule for the call: 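Hits are knock-downs in viability class RV1/RV2 or caspase class CA1/CA2, excluding ones that killed cells in the no-drug cell-count arm; hits then retested with single siRNAs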

Gene | viability hit class | caspase hit class | viability robust z-score | caspase robust z-score | activity call
ZBTB3 (zinc finger and BTB domain containing 3) | no change | no change | 0.24 | 0.08 | inactive
SCAF1 (SR-related CTD associated factor 1) | no change | no change | -0.22 | 0.44 | inactive
GNG4 (G protein subunit gamma 4) | no change | no change | -0.4 | 1.86 | inactive
SPATA31D1 (SPATA31 subfamily D member 1) | no change | no change | -1.32 | 0.59 | inactive
DCLRE1B (DNA cross-link repair 1B) | no change | no change | -0.03 | -0.65 | inactive
CYP2A13 (cytochrome P450 family 2 subfamily A member 13) | no change | no change | 0.14 | 0.21 | inactive
MAGED1 (MAGE family member D1) | no change | no change | 0.09 | 0.68 | inactive
GPR20 (G protein-coupled receptor 20) | no change | no change | -0.98 | 0.42 | inactive
NFASC (neurofascin) | no change | no change | 1.09 | -0.41 | inactive
KIAA0232 | no change | no change | 0.13 | -0.65 | inactive
NDUFV3 (NADH:ubiquinone oxidoreductase subunit V3) | no change | no change | 0.24 | -0.4 | inactive
ANKRD26 (ankyrin repeat domain 26) | no change | no change | 0.05 | -0.56 | inactive
TARBP1 (tRNA guanosine 2 -O-methyltransferase TARBP1) | no change | no change | 0.5 | 3.08 | inactive
RINL (Ras and Rab interactor like) | no change | no change | -0.31 | -0.5 | inactive
LSM11 (LSM11, U7 small nuclear RNA associated) | no change | no change | 0.08 | -0.14 | inactive
ITGA2 (integrin subunit alpha 2) | no change | no change | 0.88 | -0.11 | inactive
FBXW7 (F-box and WD repeat domain containing 7) | no change | no change | 0.64 | 0.18 | inactive
GPNMB (glycoprotein nmb) | no change | no change | -0.6 | 0.99 | inactive
ADA2 (adenosine deaminase 2) | no change | no change | -2.56 | 0.02 | inactive
FOXD3 (forkhead box D3) | no change | no change | 0.2 | 1.23 | inactive
GPSM1 (G protein signaling modulator 1) | no change | no change | -0.62 | 0.37 | inactive
ZNF529 (zinc finger protein 529) | no change | no change | -0.04 | 0.12 | inactive
FLACC1 (flagellum associated containing coiled-coil domains 1) | no change | no change | -1.27 | 2.09 | inactive
GGN (gametogenetin) | no change | no change | 1.06 | 2.24 | inactive

Limited to “viability hit class” (10 entries from above):
SPATA31D1 (SPATA31 subfamily D member 1)	no change
DCLRE1B (DNA cross-link repair 1B)	no change
CYP2A13 (cytochrome P450 family 2 subfamily A member 13)	no change
MAGED1 (MAGE family member D1)	no change
GPR20 (G protein-coupled receptor 20)	no change
NFASC (neurofascin)	no change
KIAA0232	no change
NDUFV3 (NADH:ubiquinone oxidoreductase subunit V3)	no change
ANKRD26 (ankyrin repeat domain 26)	no change
TARBP1 (tRNA guanosine 2 -O-methyltransferase TARBP1)	no change

The list goes on:
Gene | viability hit class | caspase hit class | viability robust z-score | caspase robust z-score | activity call
JAKMIP2 (janus kinase and microtubule interacting protein 2) | no change | no change | 0.71 | 0.07 | inactive
TNFRSF13B (TNF receptor superfamily member 13B) | no change | no change | -0.88 | 1.01 | inactive
MED29 (mediator complex subunit 29) | no change | no change | 1.65 | -0.12 | inactive
CRCP (CGRP receptor component) | no change | no change | 0.78 | 0.22 | inactive
DIPK1B (divergent protein kinase domain 1B) | no change | no change | -0.52 | 1.17 | inactive
FZD8 (frizzled class receptor 8) | no change | no change | 0.02 | 0.96 | inactive
KBTBD2 (kelch repeat and BTB domain containing 2) | no change | no change | 1.72 | -0.12 | inactive
CYP2S1 (cytochrome P450 family 2 subfamily S member 1) | no change | no change | -1.2 | 1.9 | inactive
ALDH3B1 (aldehyde dehydrogenase 3 family member B1) | no change | no change | -0.61 | -0.34 | inactive
OXSR1 (oxidative stress responsive kinase 1) | no change | no change | -0.11 | 0.74 | inactive
POR (cytochrome p450 oxidoreductase) | no change | no change | 1.66 | 0.14 | inactive
ZFC3H1 (zinc finger C3H1-type containing) | no change | no change | 0.61 | 0.56 | inactive
YPEL3 (yippee like 3) | no change | no change | 1.13 | -0.68 | inactive
HPSE2 (heparanase 2 (inactive)) | no change | no change | -0.68 | -0.68 | inactive
CNTN5 (contactin 5) | no change | no change | 1.02 | 4.29 | inactive
DIS3L2 (DIS3 like 3'-5' exoribonuclease 2) | no change | no change | 1.56 | -0.51 | inactive
CISH (cytokine inducible SH2 containing protein) | no change | no change | -0.57 | 1.83 | inactive
STRIP1 (striatin interacting protein 1) | no change | no change | 0.94 | -0.41 | inactive
TIMM9 (translocase of inner mitochondrial membrane 9) | no change | no change | 0.75 | -0.3 | inactive
TBL1XR1 (TBL1X/Y related 1) | no change | no change | -1.08 | 0.28 | inactive
S100A11 (S100 calcium binding protein A11) | no change | no change | 1.34 | 0.53 | inactive
CNN3 (calponin 3) | no change | no change | -0.03 | -0.7 | inactive
PDCD11 (programmed cell death 11) | no change | no change | -0.68 | 1.46 | inactive
PPP1R2 (protein phosphatase 1 regulatory inhibitor subunit 2) | no change | no change | -0.12 | -1 | inactive
TRPM4 | no change | CA1 (caspase activation) | 0.89 | 6.71 | active
ASAH2B (N-acylsphingosine amidohydrolase 2B) | no change | no change | -0.7 | 2.21 | inactive
MIPEP (mitochondrial intermediate peptidase) | no change | no change | 0.04 | -0.37 | inactive
CAST (calpastatin) | no change | no change | 0.2 | -0.72 | inactive
ZNF18 (zinc finger protein 18) | no change | no change | 1.91 | 0.16 | inactive
LAIR1 (leukocyte associated immunoglobulin like receptor 1) | no change | no change | 0.57 | -0.53 | inactive
NIBAN1 (niban apoptosis regulator 1) | no change | no change | -0.12 | 0.46 | inactive
KCNA2 (potassium voltage-gated channel subfamily A member 2) | no change | no change | -0.04 | 0.56 | inactive
PON2 (paraoxonase 2) | no change | no change | -0.6 | 0.55 | inactive
ZER1 (zyg-11 related cell cycle regulator) | no change | no change | 1.63 | -0.26 | inactive
DLL1 (delta like canonical Notch ligand 1) | no change | no change | -0.44 | 0.12 | inactive
FABP2 (fatty acid binding protein 2) | no change | no change | -0.23 | 2.9 | inactive
ANTXR1 (ANTXR cell adhesion molecule 1) | no change | no change | -0.07 | -0.5 | inactive
MMS19 (MMS19 cytosolic iron-sulfur assembly component) | no change | no change | 0.58 | -0.74 | inactive
KIAA0513 | no change | no change | 0.94 | -0.64 | inactive
CENPO (centromere protein O) | no change | no change | 0.57 | 0.31 | inactive
SLC6A12 | no change | no change | -0.02 | -0.45 | inactive
ELOVL2 (ELOVL fatty acid elongase 2) | no change | no change | 1.49 | -0.04 | inactive
ADAR (adenosine deaminase RNA specific) | no change | no change | 1.25 | 1.09 | inactive
LILRA1 (leukocyte immunoglobulin like receptor A1) | no change | no change | -4.13 | -1.01 | inactive
FBXO25 (F-box protein 25) | no change | no change | 0.66 | -0.48 | inactive
SLC29A2 | no change | no change | -1.39 | 0.53 | inactive
ZNF708 (zinc finger protein 708) | no change | no change | 0.67 | -1.17 | inactive
VEGFC (vascular endothelial growth factor C) | no change | no change | 0.9 | 1.12 | inactive
BCAS3 (BCAS3 microtubule associated cell migration factor) | no change | no change | 0.46 | -1.19 | inactive
